Reference: patent US6469010B1, “Medicament for the alleviation or treatment of symptom derived from the ischemic disease and compound useful thereof” (Suntory Limited, priority 1995, dated 2002)
For at least one compound, name, drawing or mass did not settle the structure.

Test system: Na+ channel
Test: Veratridine-induced sodium channel activity inhibiting action (membrane potential of synaptosomes, Rhodamine 6G)
Type: biochemical, Wistar rats
Conditions: 0.1 μM of compound; rat brain synaptosomes, veratridine-induced depolarization
Procedure: Veratridine-induced Sodium Channel Activity Inhibiting Action
The membrane potential of the synaptosomes prepared from the brain membrane of Wistar rats (male, 10 to 12 weeks old) was measured by the method of Aiuchi et al. [T. Aiuchi et al: Biochimi. Biophys. Acta.

With `COc1ccc(CN2CCN(c3ccc(Cc4ccc(F)cc4)cc3)CC2)c(OC)c1OC` [Compound 56, 1-[4-(4-fluorophenyl)-methylphenyl]-4-[(2,3,4-trimethoxyphenyl)methyl]piperazine] the “Antiveratridine action (inhibiting rate %)” value was 18.4%.
